In PMC11302872 one finds binding data, which are given here for four substances.

Chains of the proteins cited; added tags and fusions are not shown. Lines headed by an entry give the natural chain unless they say otherwise; changes in a name come on top. A line that says so, or that is headed by a name, gives the form on record, which may keep a tag or linker. Residues count along the entry.
HSPA9 (human (endogenous in T24 and UM-UC-3)) (P38646, residues 47-679): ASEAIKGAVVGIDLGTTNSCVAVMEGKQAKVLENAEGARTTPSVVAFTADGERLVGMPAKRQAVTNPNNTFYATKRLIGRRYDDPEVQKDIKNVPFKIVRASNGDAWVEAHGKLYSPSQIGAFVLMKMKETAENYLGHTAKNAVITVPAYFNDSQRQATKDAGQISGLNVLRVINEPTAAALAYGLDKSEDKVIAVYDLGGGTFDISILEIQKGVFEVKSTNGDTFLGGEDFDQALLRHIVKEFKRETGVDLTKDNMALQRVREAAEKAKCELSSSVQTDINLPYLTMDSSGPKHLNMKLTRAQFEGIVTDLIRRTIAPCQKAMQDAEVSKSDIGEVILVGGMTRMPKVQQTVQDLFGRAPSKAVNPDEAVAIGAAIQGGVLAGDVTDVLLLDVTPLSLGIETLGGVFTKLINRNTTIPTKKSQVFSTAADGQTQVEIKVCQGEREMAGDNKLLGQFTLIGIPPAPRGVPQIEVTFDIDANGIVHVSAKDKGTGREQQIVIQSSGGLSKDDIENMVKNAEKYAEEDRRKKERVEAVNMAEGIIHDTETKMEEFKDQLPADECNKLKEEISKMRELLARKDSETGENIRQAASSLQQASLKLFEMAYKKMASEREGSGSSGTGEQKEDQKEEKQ
GFP-tagged HSPA9-K612R (OE-HSPA9-K612R) (P38646, form named): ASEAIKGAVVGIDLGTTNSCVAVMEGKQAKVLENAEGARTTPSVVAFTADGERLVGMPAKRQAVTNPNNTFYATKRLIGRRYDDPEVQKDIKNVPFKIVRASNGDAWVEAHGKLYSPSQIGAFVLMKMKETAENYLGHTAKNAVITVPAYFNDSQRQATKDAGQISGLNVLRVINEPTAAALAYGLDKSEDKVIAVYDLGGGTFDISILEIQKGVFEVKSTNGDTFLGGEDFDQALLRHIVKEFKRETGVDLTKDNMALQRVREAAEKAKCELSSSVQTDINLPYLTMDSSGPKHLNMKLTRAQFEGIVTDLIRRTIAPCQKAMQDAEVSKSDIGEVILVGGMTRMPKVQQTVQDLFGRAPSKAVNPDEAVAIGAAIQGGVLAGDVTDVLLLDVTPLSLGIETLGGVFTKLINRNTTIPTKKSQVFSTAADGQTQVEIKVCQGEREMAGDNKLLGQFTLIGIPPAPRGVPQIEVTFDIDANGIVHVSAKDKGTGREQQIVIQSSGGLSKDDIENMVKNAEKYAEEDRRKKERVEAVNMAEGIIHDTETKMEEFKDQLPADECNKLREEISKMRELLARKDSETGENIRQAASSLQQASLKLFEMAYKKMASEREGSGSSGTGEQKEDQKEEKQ
UniProt Q969V5: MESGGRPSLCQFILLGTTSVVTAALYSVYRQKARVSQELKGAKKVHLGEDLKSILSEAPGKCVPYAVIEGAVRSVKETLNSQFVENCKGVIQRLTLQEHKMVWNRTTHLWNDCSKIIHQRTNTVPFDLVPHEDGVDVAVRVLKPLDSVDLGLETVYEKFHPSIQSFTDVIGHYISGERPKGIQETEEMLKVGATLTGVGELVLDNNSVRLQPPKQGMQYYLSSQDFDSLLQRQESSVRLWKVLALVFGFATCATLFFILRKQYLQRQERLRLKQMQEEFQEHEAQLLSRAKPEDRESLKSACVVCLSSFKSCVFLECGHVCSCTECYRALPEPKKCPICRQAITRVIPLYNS
UniProt Q15022: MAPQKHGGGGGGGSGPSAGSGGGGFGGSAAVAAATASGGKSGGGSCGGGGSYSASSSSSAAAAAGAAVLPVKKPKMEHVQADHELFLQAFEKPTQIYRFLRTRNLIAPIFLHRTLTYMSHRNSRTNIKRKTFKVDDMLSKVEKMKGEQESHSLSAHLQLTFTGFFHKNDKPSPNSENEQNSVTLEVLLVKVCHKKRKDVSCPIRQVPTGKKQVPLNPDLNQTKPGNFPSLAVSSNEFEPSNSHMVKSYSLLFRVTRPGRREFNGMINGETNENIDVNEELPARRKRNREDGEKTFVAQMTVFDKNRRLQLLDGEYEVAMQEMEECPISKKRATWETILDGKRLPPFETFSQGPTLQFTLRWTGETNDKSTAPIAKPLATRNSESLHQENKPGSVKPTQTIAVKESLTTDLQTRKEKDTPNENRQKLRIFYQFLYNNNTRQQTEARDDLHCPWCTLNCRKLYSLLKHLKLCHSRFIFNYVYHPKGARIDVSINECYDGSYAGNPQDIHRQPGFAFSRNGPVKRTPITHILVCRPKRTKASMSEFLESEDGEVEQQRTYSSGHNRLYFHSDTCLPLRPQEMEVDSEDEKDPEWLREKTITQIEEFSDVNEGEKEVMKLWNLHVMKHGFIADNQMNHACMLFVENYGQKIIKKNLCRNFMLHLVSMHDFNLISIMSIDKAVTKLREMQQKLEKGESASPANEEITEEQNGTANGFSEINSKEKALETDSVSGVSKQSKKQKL
UniProt O75925: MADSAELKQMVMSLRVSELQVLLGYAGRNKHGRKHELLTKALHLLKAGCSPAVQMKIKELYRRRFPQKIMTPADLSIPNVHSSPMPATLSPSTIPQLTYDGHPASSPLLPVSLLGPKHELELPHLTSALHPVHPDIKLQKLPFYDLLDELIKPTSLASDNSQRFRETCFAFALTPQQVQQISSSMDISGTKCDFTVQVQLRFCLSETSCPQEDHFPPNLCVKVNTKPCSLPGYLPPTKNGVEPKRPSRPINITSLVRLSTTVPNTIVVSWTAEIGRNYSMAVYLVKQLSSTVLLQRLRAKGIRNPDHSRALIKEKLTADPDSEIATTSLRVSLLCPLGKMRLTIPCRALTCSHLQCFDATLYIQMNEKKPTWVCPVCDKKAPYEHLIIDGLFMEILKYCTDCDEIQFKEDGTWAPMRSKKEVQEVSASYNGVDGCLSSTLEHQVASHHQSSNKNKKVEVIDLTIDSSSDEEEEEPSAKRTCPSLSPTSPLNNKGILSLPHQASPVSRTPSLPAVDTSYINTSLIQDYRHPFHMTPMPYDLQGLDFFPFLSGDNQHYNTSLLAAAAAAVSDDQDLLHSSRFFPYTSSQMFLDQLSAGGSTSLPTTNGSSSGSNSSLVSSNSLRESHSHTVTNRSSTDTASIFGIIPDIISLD

For experiment [1], the target named is GFP-tagged wild-type HSPA9 (OE-HSPA9) (human) (UniProt P38646). Kind of experiment: co-IP; anti-GFP IP from lysates of T24 and UM-UC-3 cells stably expressing GFP-tagged HSPA9 or HSPA9-K612R; immunoblot; also in MUL1-silenced cells (interactions largely weakened). (In general: In western blotting, separated proteins are transferred to a membrane and probed.)
Experiment [2] has as its target GFP-tagged HSPA9-K612R (OE-HSPA9-K612R) (human) (UniProt P38646). The experiment is described as above.
Experiment [3] has as its target HSPA9 (human (endogenous in T24 and UM-UC-3)) (UniProt P38646). Kind of experiment: co-IP; endogenous proteins, extracts of BCa cells (T24, UM-UC-3) in IP lysis buffer; 3.0 ug antibody (anti-MUL1, anti-HSPA9, anti-EZH2 or anti-SUZ12) overnight at 4 C, protein A/G magnetic beads 4 h, five rinses with NP40 lysis buffer; immunoblot.
Experiment [4] has as its target Mitochondrial E3 ubiquitin ligase 1 (MUL1) (human (endogenous in T24 and UM-UC-3)) (UniProt Q969V5). The description is as above.
Experiment [5] deals with HSPA9 (human (endogenous in T24 and UM-UC-3)) (UniProt P38646). Kind of experiment: co-IP; anti-HSPA9 IP from separated nuclear and mitochondria-free cytoplasmic protein lysates of T24 and UM-UC-3 cells; immunoblot for HSPA9, SUZ12, EZH2; result told for the nuclear fraction.

Results are given in words; binding and its absence hold for the method and conditions named. Binding seen in cells or lysates may run through a third protein. Some binding calls cover weakened binding; strength is not graded here.

In the case of SUZ12 (from UniProt Q15022 1-739), the binding entry was “binds” in experiment [1]; “no binding” in experiment [2]; “binds” in experiment [3]; “no binding” in experiment [4]; “binds” in experiment [5].

As to HSPA9 (from UniProt P38646 47-679), the binding result in experiment [4] is listed as “binds”.

As to “Mitochondrial E3 ubiquitin ligase 1 (MUL1) (from UniProt Q969V5 1-352) (enzyme)”, in experiment [2], the binding entry was “binds”.

Take “PIAS1 (from UniProt O75925 1-651) (enzyme)”: the binding result in experiment [3] is “no binding”.
